# From PubChem BioAssay AID1259415 (National Center for Advancing Translational Sciences (NCATS), 2018)
# The whole screen tested about 410,000 compounds, of which about 18,000 (4.4%) were called active. The shares of active, inactive and inconclusive entries below differ from those in the screen. No stated cut-off is given here; in the data, active means activity change below about -60%; inconclusive means no clear call, values can overlap the other calls; inactive means above about -39%.
# Test: qHTS Assay for inhibitors of the human cytomegalovirus (HCMV)
# Details: HFF cells, HCMV-luciferase reporter, 72 h; at 57.5 µM; active compounds read low
# In short: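 After 16 h attachment at 37C, HFF cells received test compound and HCMV-luciferase (1 PFU/cell); reporter luminescence read 72 h later, data normalized against buffer-only and known inhibitor Salinomycin.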
# On the % scale 0 is the no-effect control and ±100 the full control effect.
row,Structure (SMILES),"activity change, negative = inhibition"
1,CCc1nnc(SCc2c(F)cccc2Cl)c2cc3sccc3n12,active: -67.2%
2,COc1cc(/C=N/NC(=O)c2ccc(Cl)cc2)ccc1OCC(=O)N1CC(C)OC(C)C1 (stereo unspecified),inactive: 53.8%
3,CCCCCCCCCC1(CC(=O)OCC)SCCN1C(N)=O (stereo unspecified),inconclusive: -41.7%
4,COc1ccc(C2CC(c3cccs3)=NN2C(=O)CN2CCCCC2)cc1 (stereo unspecified),inactive: -5.17%
5,CSc1ccc(OC2CCN(Cc3ccccc3)CC2)cc1,inconclusive: -56.7%
6,O=C(Nc1ccccc1O)c1cc(S(=O)(=O)N2CCOCC2)c(Cl)cc1Cl,inconclusive: -48.9%
7,COC(=O)c1cn(Cc2c(C)cc(C)cc2C)nn1,inconclusive: -43.3%
8,CCOC(=O)CC(NC(=O)C(Cc1ccc(N(CCCl)CCCl)cc1)NC(C)=O)C(=O)OCC (stereo unspecified),active: -92.1%
9,Fc1ccc(NC(=S)NCCc2ccccn2)cc1,inconclusive: -49.8%
10,Cc1csc(Nc2ccc(Cl)cc2)[n+]1-c1ccc(Cl)cc1,inconclusive: -40.4%
11,O=C(Nc1cccc(F)c1)N(Cc1ccc(Cl)cc1)CC(O)C(F)(F)F (stereo unspecified),inconclusive: -58.2%
12,CN(CCOc1ccccc1)C(=O)c1cc(COc2c(F)cccc2F)on1,inconclusive: -42.6%
13,CC(C)NCCCCOc1ccc(Br)cc1Cl,inconclusive: -51.9%
14,Cc1cccc(C2C3=C(Nc4[nH]n(-c5ccccc5)c(=O)c42)c2ccccc2C3=O)c1 (stereo unspecified),active: -88.1%
15,COc1ccc(C(CC(=O)c2ccc(C)cc2)C(C#N)C#N)cc1OC (stereo unspecified),inconclusive: -42.1%
16,CCN(CC)c1ccc(C(=S)NC2CCCCC2)cc1,inconclusive: -42.7%
17,CN(C)/C=C(\C#N)C(=O)Nc1ccc(O)cc1F,inconclusive: -43.5%
18,COc1cc(NC(=O)C2CCN(c3cnc4ccccc4n3)CC2)cc(OC)c1OC,inactive: 29.6%
19,O=Nc1ccc(NOC(=O)c2ccccc2)cc1,inconclusive: -42.3%
20,COC(=O)/C(C#N)=C\c1c(OC)[nH]c2ccccc12,inconclusive: -43.4%
21,CCOc1cc2c(cc1OCC)-n1cccc1C(c1ccccc1OC)NC2 (stereo unspecified),inconclusive: -40.8%
22,COc1cc(OC)cc(-c2c(-c3ccc(F)cc3)c3cc(-c4ccc5c(c4)OCCO5)ccc3n2C)c1,inconclusive: -48.8%

# 5 entries from above, bar-delimited:
row | Structure (SMILES) | activity change, negative = inhibition
11 | O=C(Nc1cccc(F)c1)N(Cc1ccc(Cl)cc1)CC(O)C(F)(F)F (stereo unspecified) | inconclusive: -58.2%
12 | CN(CCOc1ccccc1)C(=O)c1cc(COc2c(F)cccc2F)on1 | inconclusive: -42.6%
13 | CC(C)NCCCCOc1ccc(Br)cc1Cl | inconclusive: -51.9%
14 | Cc1cccc(C2C3=C(Nc4[nH]n(-c5ccccc5)c(=O)c42)c2ccccc2C3=O)c1 (stereo unspecified) | active: -88.1%
15 | COc1ccc(C(CC(=O)c2ccc(C)cc2)C(C#N)C#N)cc1OC (stereo unspecified) | inconclusive: -42.1%

# Next structures follow:

row,Structure (SMILES),"activity change, negative = inhibition"
1,CC(=O)NC1C(Oc2ccc(C)cc2)OC2COC(c3ccco3)OC2C1O (stereo unspecified),inconclusive: -42.6%
2,NCC[C@H](O)C(=O)N[C@@H]1C[C@H](N)[C@@H](O[C@H]2O[C@H](CN)[C@@H](O)[C@H](O)[C@H]2O)[C@H](O)[C@H]1O[C@H]1O[C@H](CO)[C@@H](O)[C@H](N)[C@H]1O,inconclusive: -44.4%
3,COc1cccc(CN2CCN(Cc3cccc(Oc4ccccc4)c3)CC2)c1OC,inactive: -37.2%
4,CNNC(=S)Nc1cccc(C(F)(F)F)c1,inactive: 40.6%
5,C=CCOc1ccc2cccc(/C=N/NC(=O)c3cc4cc([N+](=O)[O-])ccc4s3)c2c1,inconclusive: -41.3%
6,CC(C)(C)Nc1nc(Nc2ccc([N+](=O)[O-])cc2)nc(NC(C)(C)C)n1,inconclusive: -47.4%
7,Cc1ccc(-n2c(C)c(C)c3c(NCCN(C)C)ncnc32)cc1,inactive: 13.8%
8,Nc1nccc(-c2cccs2)n1,inconclusive: -49.1%
9,Nc1cc(=O)[nH]c(SCc2ccc(Cl)cc2Cl)n1,active: -60.3%
10,CC(=O)c1cc(C(C)=O)c(C)[n+](C)c1C,inactive: 8.98%
11,O=C(NCC1CCCO1)c1onc(CSc2ccc(F)cc2)c1C(=O)O (stereo unspecified),inactive: 13.1%
12,Cc1oc(-c2ccc(Cl)cc2)nc1CN1CCC(C(=O)NCCCN2CCN(c3cccc(Cl)c3)CC2)CC1,inconclusive: -55.9%
13,O=C(COC(=O)CCN1C(=O)/C(=C\C=C\c2ccccc2)SC1=S)Nc1ccc(Br)cc1,active: -74.1%
14,CC(C)c1nc2sc(C(=O)O)c(N)c2c2c1CCCC2,inconclusive: -46%
15,Cc1ccc(S(=O)(=O)Nc2cccc(C(=O)N3CCC(C(N)=O)CC3)c2)cc1,inconclusive: -50.4%
16,Cc1ccc(Nc2nnc(-c3ccc(C)c(S(=O)(=O)N4CCOCC4)c3)c3ccccc23)c(C)c1,active: -66.2%
17,CCCn1cnc2c(c1=O)c1nc3ccccc3nc1n2CCc1ccccc1,inconclusive: -43.1%
18,COc1ccc(Cc2nnc(SCC(=O)N3CCCC(C)C3)o2)cc1 (stereo unspecified),inconclusive: -41.6%
19,Cc1ccnn1CC(=O)N/N=C/c1ccc([N+](=O)[O-])s1,inconclusive: -46.6%
20,Cn1cc(C2OC(=O)c3ccccc32)c2ccccc21 (stereo unspecified),inconclusive: -53.2%
21,COC(=O)c1cnc(NCc2ccc(F)cc2)c2ccccc12,inactive: -2.66%
22,Cc1cc(F)ccc1S(=O)(=O)Nc1ccc2c(c1)CCCN2C(=O)c1cccs1,inconclusive: -47%

row,Structure (SMILES),"activity change, negative = inhibition"
1,Cc1ccc(-c2cc3nn(-c4ccccc4)c(N)c3c(=O)o2)cc1,inactive: -11.9%
2,COc1cccc(CNc2ccc(F)c(Cl)c2)c1OC,inconclusive: -54.2%
3,CC(C)=C[C@@H]1C[C@H](C)[C@H]2CC[C@H](C)c3c(O)c(O)c(C)c1c32,inactive: -6.3%
4,COc1ccc(CC(=O)NCC(c2ccc(N(C)C)cc2)N2CCOCC2)cc1 (stereo unspecified),inactive: -10.3%
5,Cn1cccc1/C=C1/C(=O)NC(=S)N(Cc2ccc(F)cc2)C1=O,inconclusive: -40.1%
6,Cc1noc(C)c1COc1ccc2ccc(=O)oc2c1,inconclusive: -41.3%
7,C[C@@H]1OC(Nc2ccc(N=Nc3ccccc3)cc2)[C@H](O)[C@H](O)[C@H]1O (stereo partly specified),inconclusive: -46.3%
8,CCN(CC)c1ccc2cc(NC(=O)CCC(=O)O)c(=O)oc2c1,active: -66.4%
9,COc1cc2cnc(-c3ccccc3)c(-c3ccc(C#N)cc3)c2cc1OC,inactive: -12.4%
10,O=C(CSc1nnc(-c2cc3ccccc3cc2O)n1Cc1ccco1)c1ccc(F)cc1,inconclusive: -47.6%
11,Cc1nnc(SCC2=C(C(=O)O)N3C(=O)C(NC(=O)Cn4nc(C(F)F)cc4C)C3SC2)s1 (stereo unspecified),inactive: 18.9%
12,COc1cccc(NC(=O)CSc2nc3ccccc3n2C)c1,inconclusive: -50.7%
13,N#CCC(=O)N/N=C/c1cccc(Oc2ccccc2)c1,inconclusive: -40.6%
14,CCc1cc(C(=O)N2CCCC(CCC(=O)NCc3cccc(OC)c3)C2)no1 (stereo unspecified),inconclusive: -41.7%
15,CCOc1ccc(NCc2cccn2-c2nnc(N3CCC(C(=O)NCCCN4CCCCC4)CC3)s2)cc1,inconclusive: -45.5%
16,Cc1c(C=O)c2ccccc2n1CCOc1ccccc1F,inconclusive: -43%
17,O=[N+]([O-])c1ccc2c(c1)nc1n2CCCCC1,inconclusive: -48.5%
18,COc1ccc(Br)cc1S(=O)(=O)N1CCCC1,inactive: -15.7%
19,O=NN(Cc1cccnc1)Cc1cccnc1,inconclusive: -44.6%
20,CC(=O)N1CCc2cc(S(=O)(=O)NCCC(=O)NCCc3ccc(Cl)cc3)ccc21,active: -74.9%
21,COc1ccc(NC(=O)c2cccc(Oc3ccccc3)c2)cn1,inconclusive: -47.1%
22,CN(C)C(=O)c1ccc(Nc2cc3c(cn2)cc(-c2ccc(C(=O)N(C)C)cc2)n3Cc2ccccc2)cc1,inconclusive: -51.8%

row,Structure (SMILES),"activity change, negative = inhibition"
1,COC(=O)c1ccccc1NC(=S)N(Cc1ccc2c(c1)OCO2)Cc1cc2cc(C)ccc2[nH]c1=O,inconclusive: -50.6%
2,CC(=O)Nc1ccc(NC(=O)C(C)OC(=O)[C@@H]2CCCN2C(=O)c2cccs2)cc1 (stereo partly specified),inactive: -3.06%
3,Cc1ccc(C)c(CN2C(=O)c3ccccc3S(=O)(=O)c3ccc(C(=O)N4CCN(c5ccccn5)CC4)cc32)c1,active: -71.4%
4,CC(CCc1ccccc1)NC(=O)COC(=O)c1ccc(NC(N)=O)cc1 (stereo unspecified),active: -71%
5,COc1ccc(C)cc1NC(=O)NCc1ccc2c(c1)CCN2C(=O)c1ccccc1,active: -91.8%
6,CCOC(=O)c1cnc2cc(-c3ccc(C)cc3)nn2c1-c1ccccc1,inconclusive: -50.6%
7,COc1ccc(N/C=C/C(=C(C#N)C#N)N(C)C)cc1,inconclusive: -49.4%
8,Cn1ncc(Br)c1C(=O)NC12CC3CC(CC(C3)C1)C2,inconclusive: -46.4%
9,CCC(C(=O)c1ccc2ncccc2c1)c1ccccc1 (stereo unspecified),inconclusive: -52.5%
10,CCc1ccc(-c2[nH]nc3nc(-c4ccc(OC)cc4)cc(C(=O)NCCc4ccc(OC)c(OC)c4)c23)cc1,active: -91.4%
11,O=C(CC1SC(=Nc2ccccc2)N(Cc2ccccn2)C1=O)Nc1ccc(Br)cc1 (stereo unspecified),inactive: 7.45%
12,CC(C)Cn1c2c(c(=O)[nH]c1=O)C(NS(=O)(=O)c1ccc(Cl)cc1)(C(F)(F)F)C(=O)N2 (stereo unspecified),inconclusive: -49.7%
13,CNC(=O)c1nnsc1S(=O)(=O)c1ccc(Cl)cc1,active: -93.7%
14,CN(C)S(=O)(=O)c1cccc(NC(=O)c2cc3ccccc3o2)c1,inactive: 28.6%
15,CN(Cc1ccccc1)C(=O)c1cc(-c2ccc(Br)cc2)on1,inactive: -6.43%
16,Cc1cccc(OCC(O)CN2CCN(CCN3C(=O)c4cccc5cccc(c45)C3=O)CC2)c1C (stereo unspecified),inconclusive: -40.5%
17,COc1cccc(C(=O)Nc2ccc3c(c2)C(=O)c2ccccc2C3=O)c1,inconclusive: -58.8%
18,Fc1ccc(-c2nnc(-n3nnc4ccccc43)c3ccccc23)cc1,inconclusive: -54.4%
19,NC(=O)CC(NC(=O)c1ccccc1)c1ccc(N2CCN(c3ccccc3)CC2)c([N+](=O)[O-])c1 (stereo unspecified),active: -65.5%
20,Cn1c(SCC(=O)Nc2ccc3nc(SCC(=O)NC4CC4)sc3c2)nnc1-c1ccccc1,inconclusive: -44%
